Assay results: paper PMC2991253
No constants are given. Whether binding was seen depends on the method and setting. In cells and extracts the contact can be indirect. Some binding calls cover weakened binding; strength is not graded here.

Protein sequences, listed by entry. Tags and fused reporters are not part of them. Residues count along the entry.
UniProt Q02846, residues 52-1103: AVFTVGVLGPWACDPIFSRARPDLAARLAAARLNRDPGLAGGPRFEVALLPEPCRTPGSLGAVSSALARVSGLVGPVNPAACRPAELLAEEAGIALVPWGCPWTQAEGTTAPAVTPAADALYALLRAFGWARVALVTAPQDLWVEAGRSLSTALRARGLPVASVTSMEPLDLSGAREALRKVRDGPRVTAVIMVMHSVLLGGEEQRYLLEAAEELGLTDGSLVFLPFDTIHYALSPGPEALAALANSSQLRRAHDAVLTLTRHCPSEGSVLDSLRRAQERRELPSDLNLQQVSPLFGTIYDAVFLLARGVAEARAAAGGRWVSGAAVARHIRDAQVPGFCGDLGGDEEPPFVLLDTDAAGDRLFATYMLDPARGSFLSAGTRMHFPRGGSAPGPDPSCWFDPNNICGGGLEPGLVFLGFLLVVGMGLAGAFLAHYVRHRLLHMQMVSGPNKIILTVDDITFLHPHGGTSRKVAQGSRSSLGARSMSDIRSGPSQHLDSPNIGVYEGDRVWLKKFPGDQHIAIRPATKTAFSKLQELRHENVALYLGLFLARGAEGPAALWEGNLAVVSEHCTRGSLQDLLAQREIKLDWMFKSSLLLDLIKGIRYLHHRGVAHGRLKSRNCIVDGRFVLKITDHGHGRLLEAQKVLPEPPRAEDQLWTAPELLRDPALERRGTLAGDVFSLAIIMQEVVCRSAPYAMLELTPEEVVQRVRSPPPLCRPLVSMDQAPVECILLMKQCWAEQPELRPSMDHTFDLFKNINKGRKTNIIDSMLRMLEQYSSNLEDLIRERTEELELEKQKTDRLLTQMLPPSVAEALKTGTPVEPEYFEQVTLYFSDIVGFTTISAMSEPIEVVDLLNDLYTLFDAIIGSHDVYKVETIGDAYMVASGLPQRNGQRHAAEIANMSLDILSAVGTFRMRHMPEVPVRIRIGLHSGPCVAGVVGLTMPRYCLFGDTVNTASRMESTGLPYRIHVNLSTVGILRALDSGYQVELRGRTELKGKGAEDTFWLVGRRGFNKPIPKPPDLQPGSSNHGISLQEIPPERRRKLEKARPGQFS

Target: T1, Ankmy2-1D4 (mouse Ankmy2 with the rhodopsin 1D4 epitope) (mouse) (UniProt Q3TPE9)
T1 sequence: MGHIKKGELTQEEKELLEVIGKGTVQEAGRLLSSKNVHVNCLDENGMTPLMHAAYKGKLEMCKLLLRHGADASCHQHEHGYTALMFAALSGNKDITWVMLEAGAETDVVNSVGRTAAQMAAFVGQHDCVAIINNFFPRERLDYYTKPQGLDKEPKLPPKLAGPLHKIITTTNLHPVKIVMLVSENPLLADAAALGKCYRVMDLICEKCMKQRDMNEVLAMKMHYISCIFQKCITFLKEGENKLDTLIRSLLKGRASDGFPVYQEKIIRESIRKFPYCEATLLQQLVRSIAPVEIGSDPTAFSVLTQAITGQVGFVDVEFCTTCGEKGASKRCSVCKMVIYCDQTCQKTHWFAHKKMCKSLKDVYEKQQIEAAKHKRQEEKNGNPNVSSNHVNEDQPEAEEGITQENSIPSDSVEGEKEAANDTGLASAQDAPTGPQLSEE
Assay: co-IP; HEK293 cells co-expressing Ankmy2-1D4 and GC1 or ABCA4; extract solubilized in 18 mM CHAPS in TBS (20 mM Tris, 150 mM NaCl, 1 mM EDTA, 1 mM MgCl2); Rho 1D4 antibody-Sepharose 2B, 4°C, one hour; eluted with 0.2 mg/ml 1D4 peptide; Western blot

binding: binds
Substance: guanylate cyclase 1 (GC1), retinal guanylyl cyclase (from UniProt Q02846 52-1103) (enzyme)
